Measurements reported in patent US11059860B2, “Biocidal peptide and preparation based thereon” (“VERTA RESEARCH-PRODUCTION COMPANY” LTD, priority 2017, dated 2021).
Not every detail of the peptide structures is certain; ends, links or a residue may be inferred. Some results were stated once for a whole list of compounds, not compound by compound. Some ranges recur; such a range may be that of the whole group of compounds. Where a SMILES comes first, the peptide text is derived from it. [ ]: non-standard residue; d: D form. Phe(F5) = N[C@@H](Cc1c(F)c(F)c(F)c(F)c1F)C(=O)O; Phe(2-Me) = Cc1ccccc1C[C@H](N)C(=O)O

Experiments:
[1] = tested on: Candida albicans 820 strain; assay: Antifungal activity against mold fungi and yeast (radial diffusion); assay type: cell-based; conditions: substantially exceeding that of indolycidin
thymus cells = assay: Spontaneous proliferation of thymus cells (3H-thymidin capture); assay type: cell-based, murine; conditions: 72 hrs
spleen cells = assay: Spontaneous proliferation of spleen cells (3H-thymidin capture); assay type: cell-based, murine; conditions: for spontaneous proliferation of spleen cells (captured 3H-thymidin): 72 hrs
[2] = tested on: RAW 264.7 macrophage line cells; assay: NO production by RAW 264.7 macrophage line cells stimulated with LPS (Greiss test); assay type: cell-based
Procedure: Upon completion of incubation, the culture medium in all wells of the plate was replaced with 0.25 ml of fresh medium. […] Polymixin B (Calbiochem) (PMB) in the same concentrations was used as the positive control of the inhibition of the LPS effect. The prepared mixture was then added at 0.25 ml increments to the wells of the culture plate at least in two parallel experiments. A mixture of LPS and the culture medium was added to the control wells. The cells were cultivated for 24 hrs. in a CO2 incubator. NO production was measured based on the total nitrite level in the culture medium in the Greiss test by using a commercial reagent (Sigma) according to the manufacturer's specifications.

H-Ile-Leu-Pro-Phe(Cl)-Lys-Phe(Cl)-Pro-Phe(Cl)-Phe(Cl)-Pro-Phe(Cl)-Arg-Arg-NH2 [Peptide 4]
doses exhibiting biocidal activity against mold fungi and yeast [1]: 3 to 10 µg/mL

H-Ile-Leu-Pro-(4-NHBz)Phe-Lys-(4-NHBz)Phe-Pro-(4-NHBz)Phe-(4-NHBz) Phe-Pro-(4-NHBz)Phe-Arg-Arg-NH2 [Peptide 8]
doses exhibiting biocidal activity against mold fungi and yeast [1]: 3 to 10 µg/mL

CC[C@H](C)[C@H](N)C(=O)N[C@@H](CC(C)C)C(=O)N1CCC[C@H]1C(=O)N[C@@H](Cc1ccccc1C)C(=O)N[C@@H](CCCCN)C(=O)N[C@@H](Cc1ccccc1C)C(=O)N1CCC[C@H]1C(=O)N[C@@H](Cc1ccccc1C)C(=O)N[C@@H](Cc1ccccc1C)C(=O)N1CCC[C@H]1C(=O)N[C@@H](Cc1ccccc1C)C(=O)N[C@@H](CCCNC(=N)N)C(=O)N[C@@H](CCCNC(=N)N)C(N)=O [Peptide 11, H-Ile-Leu-Pro-(2-Me)Phe-Lys-(2-Me)Phe-Pro-(2-Me)Phe-(2-Me)Phe-Pro-(2-Me) Phe-Arg-Arg-NH2] (H-ILP[Phe(2-Me)]K[Phe(2-Me)]P[Phe(2-Me)][Phe(2-Me)]P[Phe(2-Me)]RR-NH2)
doses exhibiting biocidal activity against mold fungi and yeast [1]: 3 to 10 µg/mL
spontaneous proliferation of thymus cells (captured 3H-thymidin) (thymus cells; peptide 0.08 μg/ml): 229 ± 54 imp/min
spontaneous proliferation of thymus cells (captured 3H-thymidin) (thymus cells; peptide 0.4 μg/ml): 207 ± 84 imp/min
spontaneous proliferation of thymus cells (captured 3H-thymidin) (thymus cells; peptide 2 μg/ml): 347 ± 122 imp/min
spontaneous proliferation of thymus cells (captured 3H-thymidin) (thymus cells; peptide 10 μg/ml): 310 ± 127 imp/min
effect on spontaneous proliferation of splenocytes (in words) (spleen cells; 2-10 μg/ml dose range): statistically significant enhancement of the spontaneous proliferation of splenocytes
spontaneous proliferation of spleen cells (captured 3H-thymidin) (spleen cells; peptide 0.08 μg/ml): 1724 ± 608 imp/min
spontaneous proliferation of spleen cells (captured 3H-thymidin) (spleen cells; peptide 0.4 μg/ml): 2149 ± 474 imp/min
spontaneous proliferation of spleen cells (captured 3H-thymidin) (spleen cells; peptide 2 μg/ml): 1849 ± 157 imp/min
spontaneous proliferation of spleen cells (captured 3H-thymidin) (spleen cells; peptide 10 μg/ml): 1155 ± 182 imp/min
effect on NO production stimulated by LPS (in words) ([2]; 10-0.4 μg/ml doses): inhibited the NO production
NO production inhibition ([2]; stimulated with 0.04 ml of LPS, peptide 0.4 μg/ml): 7%
NO production inhibition ([2]; stimulated with 0.04 ml of LPS, peptide 2 μg/ml): 12%
NO production inhibition ([2]; stimulated with 0.04 ml of LPS, peptide 10 μg/ml): 52%
NO production inhibition ([2]; stimulated with 0.2 ml of LPS, peptide 0.4 μg/ml): 3%
NO production inhibition ([2]; stimulated with 0.2 ml of LPS, peptide 2 μg/ml): 9%
NO production inhibition ([2]; stimulated with 0.2 ml of LPS, peptide 10 μg/ml): 30%

CC[C@H](C)[C@H](N)C(=O)N[C@@H](CC(C)C)C(=O)N1CCC[C@H]1C(=O)N[C@H](Cc1ccccc1)C(=O)N[C@@H](CCCCN)C(=O)N[C@H](Cc1ccccc1)C(=O)N1CCC[C@H]1C(=O)N[C@H](Cc1ccccc1)C(=O)N[C@H](Cc1ccccc1)C(=O)N1CCC[C@H]1C(=O)N[C@H](Cc1ccccc1)C(=O)N[C@@H](CCCNC(=N)N)C(=O)N[C@@H](CCCNC(=N)N)C(N)=O [Peptide 6, H-Ile-Leu-Pro-D-Phe-Lys-D-Phe-Pro-D-Phe-D-Phe-Pro-D-Phe-Arg-Arg-NH2] (H-ILP[dF]K[dF]P[dF][dF]P[dF]RR-NH2)
doses exhibiting biocidal activity against mold fungi and yeast [1]: 3 to 10 µg/mL

H-ILP[Phe(F5)]K[Phe(F5)]P[Phe(F5)][Phe(F5)]P[Phe(F5)]RR-NH2 [Peptide 13]
doses exhibiting biocidal activity against mold fungi and yeast [1]: 3 to 10 µg/mL
